As a reminder, the Kd is a measure of binding affinity in units of concentration.

Chains of the proteins cited; added tags and fusions are not shown. A line that says so, or that is headed by a name, gives the form on record, which may keep a tag or linker.
RPA (full-length heterotrimer) (Homo sapiens), one chain, as listed by the source, chain 3 of 3: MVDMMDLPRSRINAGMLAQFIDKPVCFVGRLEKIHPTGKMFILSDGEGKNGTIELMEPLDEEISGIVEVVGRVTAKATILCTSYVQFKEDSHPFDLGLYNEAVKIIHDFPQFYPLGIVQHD
RPA (full-length heterotrimer) (Homo sapiens), one chain, as listed by the source, chain 1 of 3: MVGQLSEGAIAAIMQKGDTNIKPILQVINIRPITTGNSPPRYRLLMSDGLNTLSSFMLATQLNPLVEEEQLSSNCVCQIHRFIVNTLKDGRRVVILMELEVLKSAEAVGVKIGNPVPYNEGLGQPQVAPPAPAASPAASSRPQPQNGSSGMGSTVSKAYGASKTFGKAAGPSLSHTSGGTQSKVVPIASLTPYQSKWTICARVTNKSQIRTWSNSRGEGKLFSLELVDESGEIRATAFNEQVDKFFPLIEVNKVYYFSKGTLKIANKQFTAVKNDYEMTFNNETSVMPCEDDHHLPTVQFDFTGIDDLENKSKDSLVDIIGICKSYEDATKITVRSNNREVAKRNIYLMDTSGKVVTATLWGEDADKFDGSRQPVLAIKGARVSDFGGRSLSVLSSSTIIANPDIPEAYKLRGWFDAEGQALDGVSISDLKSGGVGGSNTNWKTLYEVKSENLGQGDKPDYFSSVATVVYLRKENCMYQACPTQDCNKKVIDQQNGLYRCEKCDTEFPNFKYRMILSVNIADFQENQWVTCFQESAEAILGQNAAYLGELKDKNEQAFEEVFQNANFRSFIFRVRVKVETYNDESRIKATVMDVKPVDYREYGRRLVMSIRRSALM
RPA (full-length heterotrimer) (Homo sapiens), one chain, as listed by the source, chain 2 of 3: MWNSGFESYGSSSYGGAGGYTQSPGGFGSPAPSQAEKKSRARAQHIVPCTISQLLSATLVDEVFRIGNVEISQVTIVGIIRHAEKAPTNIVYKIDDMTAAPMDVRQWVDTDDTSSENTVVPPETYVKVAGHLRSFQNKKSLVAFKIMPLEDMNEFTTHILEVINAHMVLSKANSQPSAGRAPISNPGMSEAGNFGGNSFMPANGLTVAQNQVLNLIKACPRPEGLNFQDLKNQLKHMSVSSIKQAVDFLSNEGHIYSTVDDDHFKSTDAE

The test system of data set [1] is RPA (full-length heterotrimer) (Homo sapiens). As to the kind of experiment: fluorescence anisotropy. The following applies: 1 mM MnCl2; RPA mixed 1:1 with 10 nM fluorescein-labelled DNA, 30 ul; recombinant protein. For orientation: In fluorescence polarisation assays a small probe gives low polarisation when free and higher when bound to something large.
The test system is the same in data set [2]. As to the kind of experiment: limited trypsin proteolysis. The following applies: recombinant protein.

Construct, isoform or probe ends are uncertain for at least one entry.

“ATAAATATTTTTTATTAATAATAGATCACCTTTCTTTCTCTTCTCCCCTT / TTCCCCTCCTCTCCTTCCTTCCTGATCTATTATTAATAAAAAATATTTAT / AAGGGGAGAAGAGAAAGAAAGG [fork + leading strand]”: the Kd in data set [1] worked out at 6 nM. In data set [2], the binding result is given as “binds”.

The values above are taken from paper PMC5510000.
